Measurements from “University of Dundee, Small-Polar-MMV Screening Library” (2021), ChEMBL document CHEMBL3988442.

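Whole-cell assay for inhibitors of Mycobacterium tuberculosis growth, labelled Cornell in the record; the read-out is not stated. The concentration is filed as 10 mM, unlikely as a test dose, so the dose is not known. Higher means stronger inhibition (inferred from two other growth screens of the library). Of about 53,000 compounds tested this way, about 900 (1.7%) reached 50% or more in at least one test.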

Results are given as percent effect.
The record does not define 0% and 100%; most values in the screen are far below 50% and negative numbers occur (in some assays of this library far below -100).
The compounds are a random part of those screened.

SMILES,percent effect
O=C(O)C(F)(F)F.O=C(O)C(F)(F)F.O=C(O)c1c(-c2ccncc2)ncc2c1CCN(C1CCOC1)C2 (centres undefined),17.45
[H][C@@]12CCN(C(=O)c3ccnnc3)C[C@@]1([H])O[C@H](c1nc(C)c(C)s1)C2,15.85
CS(=O)(=O)N[C@@H]1CN(Cc2ccc3ncccc3c2)C[C@H]1O,46.14
Cn1ccnc1-c1noc(NCc2ccccc2)n1,15.65
CN(C)c1cc(C2CCCN(S(=O)(=O)c3cn(C)cn3)C2)ccn1 (centres undefined),8.189
c1nc(N2CCc3[nH]cnc3C2)c2cc[nH]c2n1,6.004
CCN1CCN(C[C@@H]2CN(c3ncccc3F)C[C@@H]2CO)CC1,-18.27
Cc1nc(CN(CCS(C)(=O)=O)C(C)C)no1,-6.077
CS(=O)(=O)NCc1nnc2n1CCN(Cc1nccs1)C2,4.944
CC(=O)NC1CCN(C(=O)Nc2cccc(SC(F)F)c2)CC1,12.14
Cn1ncc2c1NC(=O)CC2c1ccccc1Cl (centres undefined),-9.252
COc1cccc(SCC(=O)N2CCC(N3CCCC3=O)CC2)c1,21.46
O=C(O)C(F)(F)F.[H][C@]12CCN(c3ccc(C)nn3)C[C@@]1([H])CN(Cc1cc[nH]n1)C2,-13.04
O=C(O)C(F)(F)F.[H][C@@]12CN(Cc3ccco3)CCC[C@]1(C(=O)OCC)CN(S(C)(=O)=O)C2,-1.363
CCOc1cccc(CCNC(=O)NC2CCc3[nH]ncc3C2)n1 (centres undefined),3.208
CCC[C@@H]1CN(Cc2ccccc2C#N)C[C@H]1NC(C)=O,-10.74
CCOc1cccc(C2CC(=O)NCc3nc(N)sc32)c1 (centres undefined),12.05
O=C(O)C(F)(F)F.[H][C@@]12CCCO[C@]1([H])[C@H](N(C)Cc1cncnc1)CN2C(=O)c1ccco1,-5.876
Cc1ccccc1CN1CCCN(CCN2CCOC2=O)CC1,-16.93
CCSCCC(=O)Nc1ncn(Cc2cccnc2)n1,27.84
CCS(=O)(=O)N1CCCCC1c1nc(CC(C)C)no1 (centres undefined),28.4
NC(=O)c1cc(C2CCCN(CCCOc3ccccc3)C2)n[nH]1 (centres undefined),-4.892
Cc1cccc(C(C)NCC2CCS(=O)(=O)CC2)c1 (centres undefined),23.79
[H][C@]12CCC[C@@]1(COCc1ccncc1)CN(C1CCOCC1)C2,-5.051
COc1ccc2c(c1)C(=O)NC1(CC2)CCN(Cc2ccccn2)C1 (centres undefined),-23.83
Cc1cc(C(=O)N2CCN(Cc3ccsc3)CC2)n(C)n1,8.226
CS(=O)(=O)N1CCOCC2(CCN(Cc3ccc[nH]3)CC2)C1.O=C(O)C(F)(F)F,15.86
O=C(CCc1cc(O)no1)N1CCCC(COc2ccc(F)cc2)C1 (centres undefined),15.14
CCn1nc(C)c(CNC(=O)c2nnc3ccccc3n2)c1C,7.838
OC1(CNCCCN2CCCc3ccccc32)CNCCOC1 (centres undefined),36.4
O=C(O)CCc1ccc(S(=O)(=O)Nc2cnn(CC(F)(F)F)c2)cc1,34.86
Cc1ccc(C)c2c1NC(=O)C2CC(=O)O (centres undefined),-29.72
N#Cc1cc(N2CCC(CS(N)(=O)=O)CC2)nc2ccccc12,36.55
CCC(O)CN1CCN(C(=O)C2(c3ccc(C)c(OC)c3)CC2)CC1 (centres undefined),19.85
Cc1ccc(C(=O)N2CCC(=O)N(CC3CC3)C(C(C)C)C2)c(=O)[nH]1 (centres undefined),-87.33
Cc1nc(C)c(CN2CCOC[C@H](Oc3ccccc3)C2)s1,7.133
c1ccc(Cc2noc(CN3CCc4c(ncn4C4CC4)C3)n2)cc1,-13.34
O=C(c1ccnnc1)N1CCn2cc(CN3CCCCC3)nc2C1,1.004
Cc1cc(C)n(CCNC(=O)c2ncc[nH]2)c(=O)n1,-2.608
CC(=O)N1CCc2c(nc(N(C)C)nc2NC(C)Cc2cccs2)C1 (centres undefined),32.56
Cc1ccccc1C(C)NC(=O)CN1CCN(Cc2ccc(Cl)s2)CC1 (centres undefined),32.32
[H][C@@]12CCN(Cc3ccncc3)C[C@@]1([H])O[C@@H](C(=O)N(C)C)C2,3.316
Cc1nc(C)n(C2CCCN(C(=O)CCc3cscn3)C2)n1 (centres undefined),-23.37
[H][C@@]12CCN(S(=O)(=O)CC)[C@]1([H])CC[C@@H](c1nc(C)no1)O2,0.2355
COc1cc(C(=O)N2CCC(Nc3cccnc3)CC2)ccc1C,26.24
CN(CC1(O)CCCN(c2ccccn2)C1)C(=O)CC1CCOCC1 (centres undefined),-12.31
Cc1cc(C(=O)N2CCC3(CC2)C(=O)NCCN3CC(C)C)c(C)o1,-31.96
CCC(Nc1cccc(OC)c1)C(=O)NCc1nc(C)cc(=O)[nH]1 (centres undefined),5.448
O=C(NCc1ccccc1CN1CCOCC1)Nc1nncs1,-32.29
N#CCCCS(=O)(=O)NC1(c2ccc(F)cc2)CC1,15.94
Cc1cnc(NC(=O)c2cccc(CN(C)Cc3snnc3C)c2)s1,13.35
NC(=O)C(NCc1ccc(Cl)s1)c1ccccc1 (centres undefined),7.473
CCCC(=O)NCCc1nc(N(C)C)ncc1-c1ccncc1,28.61
CN(C)C1COC2(CCN(Cc3ccncc3)CC2)C1 (centres undefined),9.126
Cc1nc(N2CCCC2)ccc1NCc1ccccn1,13.56
COCC1CN(Cc2ccc(F)cc2)Cc2nn(C)cc21.O=C(O)C(F)(F)F (centres undefined),21.43
O=C(NCC(F)(F)F)C(c1cccnc1)N1CCOCC1 (centres undefined),-0.009258
Cc1cc(C)nc(NCCCC(=O)NCCn2ccc3ccccc32)n1,11.36
CNS(=O)(=O)CCn1cc(-c2cc3c(cc2OC)CCC3)nn1,3.733
COc1ccc(CN2CCc3nnc(COCCN(C)C)n3CC2)cc1.O=C(O)C(F)(F)F.O=C(O)C(F)(F)F,17
O=C(CC1CC1)N1Cc2nccn2CC(CN2CCCC2)C1 (centres undefined),-49.34
CC(C)(C(=O)N[C@@H]1CCC[C@@H](O)[C@@H]1O)c1cccc(F)c1,-33.11
CN(C)C(CNC(=O)c1cc2c([nH]c1=O)CCCC2=O)c1ccsc1 (centres undefined),10.95
COC(=O)CCNC(=O)c1ccc(OCc2ccccc2)nc1,-26.92
O=C(CSc1nnc(N2CCNCC2)s1)Nc1ccccc1.O=C(O)C(F)(F)F,-59.9
Cc1cnc(NS(=O)(=O)c2cccc(C#N)c2)s1,-17.84
CC(c1nc(C2CC2)no1)N1CCN(Cc2cccc(F)c2F)CC1 (centres undefined),13.92
Cc1nc(-c2ccccc2C)n(CC(=O)NC(C)C)n1,-43.85
c1ccc(Cc2noc(-c3ccc(NCC4CCCCO4)nc3)n2)cc1 (centres undefined),12.22
Nc1nccnc1C(=O)N1CCN(Cc2cccc3ccccc23)CC1,-55.87
CCCN(CCC)c1ncc(S(=O)(=O)c2ccc(C)cc2)c(N)n1,11.9
CC(Cc1ccsc1)NC(=O)c1cc(N2CCNC2=O)ccc1F (centres undefined),5.279
CCCS(=O)(=O)N1CCC(NC(=O)c2ccc(C)s2)CC1,-12.85
CCOC(=O)Cn1ccc(NC(=O)Cc2ccccc2F)n1,99.82
CN(C)Cc1cccc(-c2cccnc2C(=O)NCC2CC2)c1,20.84
Cc1nc(C2CCN(S(C)(=O)=O)CC2)nc(N2CCCC2)c1C,1.428
CCN1CCC(CC(=O)NCC(O)c2cccc(OC)c2)CC1 (centres undefined),1.091
O=C(O)C(F)(F)F.[H][C@@]12CCN(C3CCCC3)[C@]1([H])CC[C@H](C(=O)N1CCOCC1)O2,-13.97
CSCC[C@H](NC(C)=O)c1nc(CCc2ccccc2)n[nH]1,-5.709
CC(=O)N1CCC1c1cc(N2CCNC(=O)C2)nc(C)n1 (centres undefined),-6.724
Cn1ccnc1COc1ccc(CSc2nnnn2C2CC2)cc1,-6.551
O=C(NCC(F)F)c1ccc(S(=O)(=O)NCCc2cn[nH]c2)cc1,-94.21
CCOc1cccc(CNC(=O)CN2CCC3(CCOC3)C2)c1 (centres undefined),-2.485
CCc1nc(CNc2cc(C)nc(-c3cccnc3)n2)cs1,-15.48
CN1CCOC(C)(C(=O)Nc2nccs2)C1 (centres undefined),-67.22
N#CCCCS(=O)(=O)NC1(c2cccc(Cl)c2)CC1,22.91
O=C1CC(N(C(=O)c2ccc(Oc3ccccc3)cc2)C2CC2)C(=O)N1 (centres undefined),4.226
CSC(C)CCN1CCCn2nc(CNC(=O)C3CCC3)cc2C1 (centres undefined),12.47
COCCN1CCC2(CCCN(c3ncc(F)cn3)C2)C1 (centres undefined),-46.61
COc1ccc(OC)c(NC(=O)CSc2ccc3nncn3n2)c1,19.56
c1cncc(NCCNC2CCSCC2)c1,33.2

The first 5 entries again:

* O=C(O)C(F)(F)F.O=C(O)C(F)(F)F.O=C(O)c1c(-c2ccncc2)ncc2c1CCN(C1CCOC1)C2 (centres undefined) : 17.45%
* [H][C@@]12CCN(C(=O)c3ccnnc3)C[C@@]1([H])O[C@H](c1nc(C)c(C)s1)C2 : 15.85%
* CS(=O)(=O)N[C@@H]1CN(Cc2ccc3ncccc3c2)C[C@H]1O : 46.14%
* Cn1ccnc1-c1noc(NCc2ccccc2)n1 : 15.65%
* CN(C)c1cc(C2CCCN(S(=O)(=O)c3cn(C)cn3)C2)ccn1 (centres undefined) : 8.189%